Consider 42 sequences from paper PMC7819943, “Rice protein-binding microarrays: a tool to detect cis-acting elements near promoter regions in rice”.

By UniProt entry, the sequences of proteins in these tests, tags left out.
UniProt Q0JBA9, entry or part of it: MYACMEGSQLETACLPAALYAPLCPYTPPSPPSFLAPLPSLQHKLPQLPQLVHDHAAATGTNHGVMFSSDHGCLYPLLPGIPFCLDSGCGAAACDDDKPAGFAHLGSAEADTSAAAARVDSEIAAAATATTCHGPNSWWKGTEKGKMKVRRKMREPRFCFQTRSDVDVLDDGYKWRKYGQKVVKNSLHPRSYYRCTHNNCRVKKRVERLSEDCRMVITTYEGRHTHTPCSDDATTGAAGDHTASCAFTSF

The list shows a part of the results.

The assay addresses OsWRKY34 (Oryza sativa, UniProt Q0JBA9 1-250). The assay can be described thus: protein-binding microarray (RPBM); PBS, 2% BSA, 51.3 ng/ul salmon testes DNA, 50 uM zinc acetate, 200 nM TF, 25 C, 1 h; high values mean tight binding. To be noted: protein: recombinant; tags: N-terminal polyhistidine and DsRed monomer fusion (pET32a); label: CyDye5-dUTP incorporated in the synthesized complementary strand; 3' TTTTT single-stranded linker to array surface; dsDNA, one strand shown. An outline of the steps: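 Polyhistidine-tagged DsRed fusions of transcription factors, joined at the N-terminus, were expressed in E. coli BL21-CodonPlus and isolated on Ni–NTA. They were incubated at 200 nM for 1 h at 25 °C on a custom Agilent array, double-stranded and BSA-blocked, in PBS with 2% BSA, salmon testes DNA and 50 µM zinc acetate. The binding signal is per-feature fluorescence intensity (arbitrary units) read on an Axon 4000B scanner after washing.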
As to “ATCTTTGTGCGTCTTGACTATCTAGCAATTCAGTTGCTTTCGGAGTCACCTAGTGCAG”, the binding signal is 9630 fluorescence intensity (a.u.).

With “TGTAATAAGTACCATCCTTCGTTTTACGTTAGCACTCTTTCGGAGTCACCTAGTGCAG”, the binding signal was 8630 fluorescence intensity (a.u.).

For the sequence “TATCTGTTCTTCTTTGCAATAATCTGTGTGCATTTGGAGCCGGAGTCACCTAGTGCAG”, the binding signal was 8780 fluorescence intensity (a.u.).

As to “TCACTGCCATATACATGATACTTACATACCGACGTACTACCGGAGTCACCTAGTGCAG”, the binding signal is 12200 fluorescence intensity (a.u.).

“AATTTATAACCGTGACCTGCTGCCATATGCTAACCGTTTACGGAGTCACCTAGTGCAG”: the binding signal was 8260 fluorescence intensity (a.u.).

For the sequence “TTAGTGTTCGGTTAAAACAAGTTTTACAATGGGATTCTCTCGGAGTCACCTAGTGCAG”, the binding signal was 8480 fluorescence intensity (a.u.).

Take “AAACCGGCACTGATATGCCTTTTCAACTGGTATTGTTGACCGGAGTCACCTAGTGCAG”: the binding signal was 8410 fluorescence intensity (a.u.).

Turning to “TTTGACGCCGTTGACTTTTTTAAACATGCTTGATCATTCACGGAGTCACCTAGTGCAG”, the binding signal is 13700 fluorescence intensity (a.u.).

Regarding “AGCCGTTGTTCTTCATGTTCGTTTCAGTATTTAACGATACCGGAGTCACCTAGTGCAG”, the binding signal was 8200 fluorescence intensity (a.u.).

In the case of “CTTGTCAGCTTACACCCATGCTCTCTCAAGACATTGTTCTCGGAGTCACCTAGTGCAG”, the binding signal is 9530 fluorescence intensity (a.u.).

Turning to “GAGGTGTGTGTTCGTAGAGATGAGTGCGTGCGCGTTGTGACGGAGTCACCTAGTGCAG”, the binding signal is 9140 fluorescence intensity (a.u.).

“TACTTTGGTTGACATTTTATTGGGCTCATTATACTTGGCACGGAGTCACCTAGTGCAG”: the binding signal is 8960 fluorescence intensity (a.u.).

With “CGGGACTTGGGACAAATACAATCTACACATTCTGTCATCTCGGAGTCACCTAGTGCAG”, the binding signal is 8190 fluorescence intensity (a.u.).

Regarding “GCACCACAAATGTCCGCTTTCCAACTGCTATGGCGTATACCGGAGTCACCTAGTGCAG”, the binding signal is 13400 fluorescence intensity (a.u.).

Consider “ACATTACTACCAGCAGCCCATTTCAGTTGCATTGAACTCTCGGAGTCACCTAGTGCAG”, for which the binding signal was 10000 fluorescence intensity (a.u.).

“GCCGTCGCCCTCCACCACCGTACAGCTAGTAGCCCGACGCCGGAGTCACCTAGTGCAG”: the binding signal was 8560 fluorescence intensity (a.u.).

Take “TTAGGGTTTCGTGTTTCGTCCCGCCGCCGGGTTCCCGCGACGGAGTCACCTAGTGCAG”: the binding signal was 8770 fluorescence intensity (a.u.).

On to “GTTTGTGGAGTGTTATATCACATGTTAATACACCTTTCCACGGAGTCACCTAGTGCAG”, for which the binding signal is 8060 fluorescence intensity (a.u.).

“TCTGAATTTGTGGTGGTTTCACTTTCATCGGTTCATCGCTCGGAGTCACCTAGTGCAG”: the binding signal was 8970 fluorescence intensity (a.u.).

For “TCAGCGCGCACGTGCTTAATCGAATCGATTATGTTTTCATCGGAGTCACCTAGTGCAG”, the binding signal is 8700 fluorescence intensity (a.u.).

Regarding “CGTGAACACTGTCCGCCTGGCTGTCCTACTCTTCCTTCTCCGGAGTCACCTAGTGCAG”, the binding signal was 9190 fluorescence intensity (a.u.).

As to “ACTATATCAGTACGCCACAATCCCGTTACATCTCTAAAATCGGAGTCACCTAGTGCAG”, the binding signal was 9750 fluorescence intensity (a.u.).

Take “TAGTCCACCTTTTATTACCCAAGTTTCAATTTGGACCACCCGGAGTCACCTAGTGCAG”: the binding signal is 9740 fluorescence intensity (a.u.).

With “TCCTAACTCGAGTCTTTTTCTTCTCTCTACGCCAGAATTACGGAGTCACCTAGTGCAG”, the binding signal was 11300 fluorescence intensity (a.u.).

For “ACCTACTTTTCGTCCCTTAATTCTGTGGCTATGTTCAAATCGGAGTCACCTAGTGCAG”, the binding signal is 12700 fluorescence intensity (a.u.).

Consider “GGGGTTATAGATTGGATTTTTTTTAACGGAGGGAAGAGAGCGGAGTCACCTAGTGCAG”, for which the binding signal was 10400 fluorescence intensity (a.u.).

In the case of “ATACCACCTTATATACTTTGCCAAAACCACCTTTTCCAAGCGGAGTCACCTAGTGCAG”, the binding signal was 9040 fluorescence intensity (a.u.).

For “TTGCATCACGTACGGATAAATCAAACGTCTTTTTTTTTTCCGGAGTCACCTAGTGCAG”, the binding signal was 8800 fluorescence intensity (a.u.).

“AATACCTTGGCCGCTCAATAGTAACCCAACGTGTTTCGCACGGAGTCACCTAGTGCAG”: the binding signal is 9910 fluorescence intensity (a.u.).

As for “GGTAGCCCGAGGTGGTGGTGGGTTCTGGAGGCGGTGAATCCGGAGTCACCTAGTGCAG”, the binding signal was 10200 fluorescence intensity (a.u.).

For “ACTAAATTTGATTTTTCTTATTTTTGTTTTAAGGCCAACTCGGAGTCACCTAGTGCAG”, the binding signal is 8270 fluorescence intensity (a.u.).

As for “TCTGACACCTATCTCTCCTGGATTCTCCATGCTTTCTTTCCGGAGTCACCTAGTGCAG”, the binding signal is 10300 fluorescence intensity (a.u.).

For “ATGCCCTGACTTTACCCAAACATCAGACTATGCATCTGAACGGAGTCACCTAGTGCAG”, the binding signal was 8950 fluorescence intensity (a.u.).

Turning to “TTGCTTGTGTTGGGCCGTAGGGTTTTTGTTTTTTTTTTTGCGGAGTCACCTAGTGCAG”, the binding signal was 8410 fluorescence intensity (a.u.).

As to “AATTTATAAAATTCATCGCATAAATTATTTGAATTTTGGTCGGAGTCACCTAGTGCAG”, the binding signal is 8260 fluorescence intensity (a.u.).

On to “AAAATTTTATTTTTCATGTGTGGCTTATTGTCCTTTTTTGCGGAGTCACCTAGTGCAG”, for which the binding signal was 9470 fluorescence intensity (a.u.).

On to “CTTATTAGTCATTTACAAGTTTACATGTCTCACTCAATTTCGGAGTCACCTAGTGCAG”, for which the binding signal was 9260 fluorescence intensity (a.u.).

On to “ACAACATGGTTTACCCTGCCAATTGTCCCAATGTCCCATTCGGAGTCACCTAGTGCAG”, for which the binding signal was 8170 fluorescence intensity (a.u.).

Take “CACACATTTATAAATGAGGCCTTCGTGCATGTCTTTATATCGGAGTCACCTAGTGCAG”: the binding signal was 9760 fluorescence intensity (a.u.).

As for “GGGCTCTGGTGGCGTTTCCCATTCCGCGCGCACCACACTGCGGAGTCACCTAGTGCAG”, the binding signal is 9210 fluorescence intensity (a.u.).

Consider “CATTTTAGTATGTTAGACTGTGTATTGTTTGCTGTTAATTCGGAGTCACCTAGTGCAG”, for which the binding signal is 9120 fluorescence intensity (a.u.).

Take “TACTCCATTTGGGGCCTCCACTTGATTGTTCTTTCTTGCTCGGAGTCACCTAGTGCAG”: the binding signal is 9040 fluorescence intensity (a.u.).
